The numbers were not newly measured in US20060263327A1, “Method for the production of a stable injectable formulation made of difficult to dissolve antineoplastic active substances” (priority 2003, published 2006), which cites them from elsewhere.

SMILES strings stand for the structures.

With `CC(=O)O[C@H]1C(=O)[C@@]2(C)[C@H]([C@H](OC(=O)c3ccccc3)[C@]3(O)C[C@H](OC(=O)[C@H](O)[C@@H](NC(=O)c4ccccc4)c4ccccc4)C(C)=C1C3(C)C)[C@]1(OC(C)=O)CO[C@@H]1C[C@@H]2O` [Paclitaxel], the solubility in water entry is “only poorly soluble”.
